## Library screening results

Data taken from ChEMBL document CHEMBL3988442, “University of Dundee, Small-Polar-MMV Screening Library” (2021).

Mtb heat-shock: 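Assay on Mycobacterium tuberculosis, filed only as a heat shock assay from Cornell; the read-out is not stated. The concentration is filed as 10 mM, unlikely as a test dose, so the dose is not known. Higher reads as stronger inhibition (inferred: compounds with an IC50 in retests scored well above the rest). Size under these conditions: about 69,000 compounds, about 930 of them at 50% or above in at least one test.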
Mtb growth Cornell: 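Whole-cell assay for inhibitors of Mycobacterium tuberculosis growth, labelled Cornell in the record; the read-out is not stated. The concentration is filed as 10 mM, unlikely as a test dose, so the dose is not known. Higher means stronger inhibition (inferred from two other growth screens of the library). About 53,000 compounds were tested under these conditions; 1.7% (about 900) showed 50% or more at least once.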

Values are the deposited “Percent Effect”, in %.
How 0% and 100% were set is not recorded. Most values in the screen are low, and negative values occur.
This is an unselected part of the compounds tested.

Result for O=C(c1ccc(-n2ccnn2)cc1)N(CC1CC1)c1cccnc1 was Mtb heat-shock: -6.768%; Mtb growth Cornell: 0.2105%.
Result for COCCNC(=O)NCc1cccc(-n2ccnc2)c1 was Mtb heat-shock: 7.699%; Mtb growth Cornell: 11.32%.
Result for CC1(C)CC(N2Cc3nc(N4CCOCC4)ncc3C2=O)CC(C)(C)N1 was Mtb heat-shock: -7.707%; Mtb growth Cornell: -11.35%.
Result for Cc1ccccc1CN1CCN(C(=O)c2cnc(C3CC3)[nH]c2=O)CC1 was Mtb heat-shock: -26.32%; Mtb growth Cornell: -32.57%.
Result for COc1ccc(CN2C[C@@H](O)[C@](O)(CNC(=O)c3ccccn3)C2)cc1 was Mtb heat-shock: -4.778%; Mtb growth Cornell: 6.169%.
Result for CC(=O)c1ccc(-n2c(C)cn(CCS(C)(=O)=O)c2=O)cc1 was Mtb heat-shock: 11.5%; Mtb growth Cornell: -13.58%.
Result for COc1ccccc1OCc1cc(C(=O)N2CCOCC2CO)n[nH]1 (centres unmarked) was Mtb heat-shock: -5.463%; Mtb growth Cornell: -5.164%.
Result for [H][C@]12CC[C@@]3(N=C(c4ccccc4)NC3=O)[C@@]1([H])CN(Cc1cccnc1)C2 was Mtb heat-shock: -15.66%; Mtb growth Cornell: 13.21%.
Result for O=c1cc(N2CCCC2)cnn1CCc1cccc(F)c1 was Mtb heat-shock: -0.8492%; Mtb growth Cornell: -14.68%.
Result for O=C(c1cnc(-c2ccccc2)nc1)N1CCOC2(CCCC2)C1 was Mtb heat-shock: 0.7348%.
Result for CSCC(CCO)NC(=O)Nc1ccc(C)cc1C (centres unmarked) was Mtb heat-shock: 11.74%; Mtb growth Cornell: 16.49%.
Result for Cc1cc(CC(=O)NC2CCCN(c3ccccc3Cl)C2=O)n[nH]1 (centres unmarked) was Mtb heat-shock: -6.987%; Mtb growth Cornell: -4.068%.
Result for CC(Nc1ncnc2c1NC(=O)CN2)c1ccccn1 (centres unmarked) was Mtb heat-shock: -1.447%; Mtb growth Cornell: 5.151%.
Result for CNc1cc(-c2ccccc2CN)c2cc[nH]c2n1 was Mtb heat-shock: -1.753%; Mtb growth Cornell: 23.62%.
Result for CC(C)N1CCC(C(=O)N2CCCN(c3ccccc3)CC2)CC1 was Mtb heat-shock: 8.076%.
Result for Brc1cnc(NCCCOCC2CCOCC2)nc1 was Mtb heat-shock: 19.16%.
Result for O=C(c1nnn(-c2ccc(F)cc2)n1)N1CCC(O)CC1 was Mtb heat-shock: 7.456%; Mtb growth Cornell: -44.07%.
Result for Cc1ccc(N2CCN(C3CCc4ccccc4C3)CC2)nn1 (centres unmarked) was Mtb heat-shock: 9.495%.
Result for COCCN(Cc1ccoc1)C(=O)c1cccnc1SC was Mtb heat-shock: 0.7957%; Mtb growth Cornell: 22.07%.
Result for CCc1nc(CCn2ccnc2-c2nccn2C)no1 was Mtb heat-shock: 0.3651%; Mtb growth Cornell: 32.06%.
Result for CC1CCN(S(=O)(=O)c2cccnc2)c2ccccc2S1 (centres unmarked) was Mtb heat-shock: -24.73%.
Result for CCCc1cnc(C)nc1N1CCC(Cn2cc(CO)nn2)CC1 was Mtb heat-shock: -20.35%; Mtb growth Cornell: -10.91%.
Result for NC(=O)c1cnc2n1CCN(C(=O)c1cccc(Cn3cccn3)c1)C2 was Mtb heat-shock: 20.01%; Mtb growth Cornell: 19.37%.
Result for CC(C)(C)c1nc(CN(Cc2cccnc2)C2CN3CCC2CC3)no1 (centres unmarked) was Mtb heat-shock: -45.57%; Mtb growth Cornell: -15.97%.
Result for Cc1nc(C)n(CC2CCCN2Cc2cscn2)n1 (centres unmarked) was Mtb heat-shock: 2.974%.
Result for O=C(O)C(F)(F)F.O=C(O)C(F)(F)F.[H][C@@]12CCN(C(=O)C(C)C)CC[C@]1(C(=O)Nc1cccnc1)CCN2C was Mtb heat-shock: 32.58%; Mtb growth Cornell: 11.26%.
Result for Cc1cc(C(=O)Nc2ccc(CN3CCOCC3)cn2)n(C)n1 was Mtb heat-shock: -8.606%; Mtb growth Cornell: 23.36%.
Result for Cn1c(CCNC(=O)C2CCCN(C3CCOCC3)C2)n[nH]c1=O (centres unmarked) was Mtb heat-shock: 0.9228%; Mtb growth Cornell: -7.878%.
Result for COCc1ccc(C(=O)N2CCCN(C(=O)OCC(C)C)CC2)cc1 was Mtb heat-shock: -1.592%.
Result for [H][C@@]12C[C@H](C(=O)N3CCCC3)[C@@]([H])(CN(S(=O)(=O)CCC)C1)O2 was Mtb heat-shock: 4.06%; Mtb growth Cornell: 18.05%.